Experimental data published in publication PMC7655164.

Amino acid sequences for entries named in this document (tags omitted). A change or cut given only in a name is not applied to a line headed by its entry.
UniProt Q92734: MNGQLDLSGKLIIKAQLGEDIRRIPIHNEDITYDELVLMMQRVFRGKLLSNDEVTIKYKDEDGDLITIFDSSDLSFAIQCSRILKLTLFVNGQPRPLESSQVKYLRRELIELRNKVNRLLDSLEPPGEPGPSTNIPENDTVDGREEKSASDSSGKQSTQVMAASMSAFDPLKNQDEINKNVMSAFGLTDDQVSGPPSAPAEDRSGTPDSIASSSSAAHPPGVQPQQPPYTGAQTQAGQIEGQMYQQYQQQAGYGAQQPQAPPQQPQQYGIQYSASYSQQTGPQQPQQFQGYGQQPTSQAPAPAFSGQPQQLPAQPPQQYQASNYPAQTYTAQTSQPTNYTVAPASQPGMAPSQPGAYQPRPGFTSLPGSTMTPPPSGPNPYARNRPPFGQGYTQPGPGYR
UniProt Q9BXW9: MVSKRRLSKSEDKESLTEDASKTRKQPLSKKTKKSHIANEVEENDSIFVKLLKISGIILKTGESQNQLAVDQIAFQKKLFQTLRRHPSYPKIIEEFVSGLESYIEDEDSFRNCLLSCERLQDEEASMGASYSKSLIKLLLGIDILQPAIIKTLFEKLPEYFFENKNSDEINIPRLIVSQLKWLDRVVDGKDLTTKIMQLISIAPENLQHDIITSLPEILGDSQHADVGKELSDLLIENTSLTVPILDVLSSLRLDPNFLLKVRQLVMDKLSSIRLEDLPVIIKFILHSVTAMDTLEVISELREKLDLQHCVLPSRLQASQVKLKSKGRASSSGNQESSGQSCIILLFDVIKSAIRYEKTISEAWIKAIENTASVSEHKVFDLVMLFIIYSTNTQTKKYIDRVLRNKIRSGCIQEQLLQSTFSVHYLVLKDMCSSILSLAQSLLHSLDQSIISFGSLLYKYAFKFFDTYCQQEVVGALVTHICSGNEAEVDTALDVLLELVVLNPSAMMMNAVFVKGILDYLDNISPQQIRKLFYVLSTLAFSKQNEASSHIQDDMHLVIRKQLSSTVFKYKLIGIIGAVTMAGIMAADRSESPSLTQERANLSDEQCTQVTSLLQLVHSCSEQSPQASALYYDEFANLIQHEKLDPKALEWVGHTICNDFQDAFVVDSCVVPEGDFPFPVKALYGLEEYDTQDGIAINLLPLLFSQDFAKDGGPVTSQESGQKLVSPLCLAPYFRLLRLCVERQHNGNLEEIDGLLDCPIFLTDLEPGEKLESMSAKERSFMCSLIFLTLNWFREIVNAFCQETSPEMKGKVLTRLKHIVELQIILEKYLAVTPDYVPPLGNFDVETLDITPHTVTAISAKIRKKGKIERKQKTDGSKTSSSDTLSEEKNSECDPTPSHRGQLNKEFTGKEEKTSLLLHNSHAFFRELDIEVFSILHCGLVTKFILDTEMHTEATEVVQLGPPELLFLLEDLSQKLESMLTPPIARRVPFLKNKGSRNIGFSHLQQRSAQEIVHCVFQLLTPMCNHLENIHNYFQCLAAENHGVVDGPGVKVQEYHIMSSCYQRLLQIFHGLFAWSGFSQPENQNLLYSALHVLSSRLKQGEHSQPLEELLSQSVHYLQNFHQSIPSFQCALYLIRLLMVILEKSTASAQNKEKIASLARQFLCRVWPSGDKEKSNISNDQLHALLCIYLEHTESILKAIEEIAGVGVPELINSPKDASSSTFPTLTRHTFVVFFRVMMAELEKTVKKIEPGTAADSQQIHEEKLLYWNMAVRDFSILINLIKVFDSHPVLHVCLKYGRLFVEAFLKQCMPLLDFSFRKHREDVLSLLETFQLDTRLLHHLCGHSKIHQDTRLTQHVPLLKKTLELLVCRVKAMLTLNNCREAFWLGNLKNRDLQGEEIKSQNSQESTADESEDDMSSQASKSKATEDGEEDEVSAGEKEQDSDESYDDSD

Target: TRK-Fused Gene (TFG) protein, endogenous in HEK293T cells (human (endogenous in HEK293T)) (UniProt Q92734)
Test: co-IP; HEK293T cells transfected with GFP-tagged FANCD2 constructs; reverse IP and WB with antibodies to GFP or endogenous TFG (1% CHAPS lysis buffer)

Row | binding | Substance
1 | no binding | GFP-mtFANCD2-V2Δaa1437-1442 (from UniProt Q9BXW9)
2 | binds | GFP-mtFANCD2-V2 K561R (from UniProt Q9BXW9)

No constants are given. Whether binding was seen depends on the method and setting. Binding seen in cells or lysates may run through a third protein. A result given as binding can be weak or reduced; the word gives no strength.
